Publication PMC9449597

Sequences of proteins named here, by UniProt entry; tags and fusion partners are left off. A change or cut given only in a name is not applied to a line headed by its entry. Residues count along the entry.
UniProt P02769, residues 25-607: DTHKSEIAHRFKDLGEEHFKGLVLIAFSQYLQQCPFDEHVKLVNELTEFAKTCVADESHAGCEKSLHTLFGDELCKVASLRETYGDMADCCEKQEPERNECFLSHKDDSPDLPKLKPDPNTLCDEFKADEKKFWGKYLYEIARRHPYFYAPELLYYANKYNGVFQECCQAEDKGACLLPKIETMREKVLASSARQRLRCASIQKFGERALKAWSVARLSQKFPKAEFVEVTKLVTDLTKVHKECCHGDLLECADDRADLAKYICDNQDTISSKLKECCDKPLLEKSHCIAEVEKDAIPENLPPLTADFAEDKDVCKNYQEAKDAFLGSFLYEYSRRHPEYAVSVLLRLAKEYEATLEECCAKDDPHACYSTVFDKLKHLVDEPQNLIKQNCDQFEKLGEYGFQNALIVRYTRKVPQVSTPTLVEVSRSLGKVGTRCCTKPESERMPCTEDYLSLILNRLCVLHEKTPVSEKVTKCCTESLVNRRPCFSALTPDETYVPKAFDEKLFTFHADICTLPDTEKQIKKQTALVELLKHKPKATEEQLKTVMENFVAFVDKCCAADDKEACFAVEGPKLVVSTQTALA
UniProt Q8N539: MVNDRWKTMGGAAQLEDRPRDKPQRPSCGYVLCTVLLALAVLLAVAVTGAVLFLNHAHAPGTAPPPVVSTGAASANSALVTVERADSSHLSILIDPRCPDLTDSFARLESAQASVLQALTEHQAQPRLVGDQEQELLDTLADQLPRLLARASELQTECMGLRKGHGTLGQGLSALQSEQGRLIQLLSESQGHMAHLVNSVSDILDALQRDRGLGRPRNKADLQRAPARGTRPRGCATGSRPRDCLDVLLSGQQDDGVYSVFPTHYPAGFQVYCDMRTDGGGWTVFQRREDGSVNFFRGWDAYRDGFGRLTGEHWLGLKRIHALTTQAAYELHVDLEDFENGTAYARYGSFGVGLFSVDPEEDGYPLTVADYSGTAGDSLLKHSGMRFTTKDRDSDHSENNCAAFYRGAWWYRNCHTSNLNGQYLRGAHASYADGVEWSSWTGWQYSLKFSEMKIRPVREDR

Molecular target: acetylated BSA (bovine (from the name BSA)) (UniProt P02769)
Assay: ELISA; competitive ELISA: recombinant FIBCD1 FReD incubated with acetylated BSA and increasing concentrations of CS-4S or CS-6S; as described in Schlosser et al, 2009; both purified

binding: binds
Substance: recombinant FIBCD1 FReD (fibrinogen-related domain of Fibrinogen C Domain Containing 1) (from UniProt Q8N539) (domain or fragment)

Results are given in words; binding and its absence hold for the method and conditions named. Binding calls can cover weak binding; strength is not graded here.
